From article PMC9718832, “An NKX-COUP-TFII morphogenetic code directs mucosal endothelial addressin expression” (Nature Communications, 2022)
No constants are given. Whether binding was seen depends on the method and setting. For some assays here: Binding seen in cells or lysates may run through a third protein. Some binding calls cover weakened binding; strength is not graded here. For some assays here: Where a sequence is shown, tags or fusion partners need not be part of it.

The chains behind the UniProt entries cited, without tags or fusion partners. Where a name states a change or a piece, a line headed by the entry shows the natural chain unless it says otherwise. A line that says so, or that is headed by a name, gives the form on record, which may keep a tag or linker.
UniProt P97334: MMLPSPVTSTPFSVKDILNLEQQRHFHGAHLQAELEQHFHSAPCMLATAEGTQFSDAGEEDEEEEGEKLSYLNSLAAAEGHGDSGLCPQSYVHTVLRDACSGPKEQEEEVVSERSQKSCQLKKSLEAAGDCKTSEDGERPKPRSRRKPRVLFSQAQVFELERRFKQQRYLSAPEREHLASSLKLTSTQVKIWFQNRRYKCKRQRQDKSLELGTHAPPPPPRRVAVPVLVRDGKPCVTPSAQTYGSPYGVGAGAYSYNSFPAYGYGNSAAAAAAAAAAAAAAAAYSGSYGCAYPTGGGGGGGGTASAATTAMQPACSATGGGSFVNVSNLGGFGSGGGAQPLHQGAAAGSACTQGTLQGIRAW
NKX2-3 lacking the TN domain (Nkx2-3∆2-24) (P97334, form named): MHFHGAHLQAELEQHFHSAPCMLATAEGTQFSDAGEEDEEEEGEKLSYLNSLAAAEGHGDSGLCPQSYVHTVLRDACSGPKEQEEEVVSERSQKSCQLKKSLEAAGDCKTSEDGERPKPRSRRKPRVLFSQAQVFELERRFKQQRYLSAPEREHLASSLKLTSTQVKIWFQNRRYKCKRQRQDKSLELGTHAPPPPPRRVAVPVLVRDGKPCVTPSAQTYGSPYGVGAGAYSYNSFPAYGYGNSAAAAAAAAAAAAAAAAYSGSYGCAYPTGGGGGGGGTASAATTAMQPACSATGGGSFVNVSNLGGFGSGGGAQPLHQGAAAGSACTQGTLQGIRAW

Legend:
[1] = molecular target: T1, COUP-TFII (endogenous in DN-MAML bEnd.3 cells) (mouse (endogenous in bEnd.3)) (UniProt P43135); test: proximity ligation; TNFα-treated DN-MAML bEnd.3 cells fixed in acetone at 4 °C; anti-NKX2-3 and anti-COUP-TFII antibodies; isotype-matched controls
T1 sequence: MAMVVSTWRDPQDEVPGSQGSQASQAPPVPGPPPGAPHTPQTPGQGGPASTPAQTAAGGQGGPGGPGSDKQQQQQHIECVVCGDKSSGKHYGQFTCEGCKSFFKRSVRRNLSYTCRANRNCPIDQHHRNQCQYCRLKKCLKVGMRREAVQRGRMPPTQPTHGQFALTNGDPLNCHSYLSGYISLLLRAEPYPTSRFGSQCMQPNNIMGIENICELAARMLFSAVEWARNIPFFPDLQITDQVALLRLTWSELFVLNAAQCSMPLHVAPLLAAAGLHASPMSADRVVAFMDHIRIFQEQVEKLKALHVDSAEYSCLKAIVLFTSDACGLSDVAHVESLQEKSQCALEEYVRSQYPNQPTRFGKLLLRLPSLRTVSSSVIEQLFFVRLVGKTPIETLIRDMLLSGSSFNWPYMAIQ

[2] = molecular target: T2, COUP-TFII (recombinant, His- and T7-tagged) (mouse) (UniProt P43135); test: native gel or EMSA; recombinant proteins co-incubated with labelled Madcam1 CE probes (native CE, CE_ΔC_A, CE_ΔN_ΔC_A); 4 °C, 20% glycerol, 20 mM Tris pH 8.0, 10 mM KCl, 1 mM DTT, poly dI/C, BSA; 6% gel; supershift with anti-NKX2-3; complex seen on DNA; both purified
T2 sequence: T1 sequence

| Substance | binding [1] | binding [2] |
| --- | --- | --- |
| NKX2-3 (endogenous in DN-MAML bEnd.3 cells) (from UniProt P97334 1-362) | binds | – |
| NKX2-3 lacking the TN domain (Nkx2-3∆2-24) (from UniProt P97334 1-362) | – | no binding |
